According to the supplement of paper PMC8728848:
The list shows a part of the results.

Tests used:
Assay in all cases: glycan array binding signal (z-score within array); higher = stronger binding
Details in all cases: glycan notation: IUPAC condensed, linker removed
[1] = molecular target: Neu5Ac(a2-3)GalNAc(b1-4)GlcNAc
Method in brief: (§1)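 The binding signal is a Z-score computed within each array and averaged over linkers. Arrays of the same protein sequence at different concentrations or buffers were also averaged together. Data originate from 3228 arrays in the Consortium for Functional Glycomics database, kept only where the protein sequence was available.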

[2] = molecular target: Neu5Ac(a2-3)[GalNAc(b1-4)]Gal(b1-4)Glc
Method in brief: as §1

[3] = molecular target: Neu5Ac(a2-3)[GalNAc(b1-4)]Gal(b1-4)GlcNAc
Method in brief: as §1

[4] = molecular target: Neu5Ac(a2-3)[GalNAc(b1-4)]Gal(b1-4)GlcNAc(b1-3)GalNAc
Method in brief: as §1

[5] = molecular target: Neu5Ac(a2-3)[Neu5Ac(a2-6)]GalNAc
Method in brief: as §1

[6] = molecular target: Neu5Ac(a2-6)Gal
Method in brief: as §1

[7] = molecular target: Neu5Ac(a2-6)Gal(b1-3)GlcNAc(b1-3)[Gal(b1-4)GlcNAc(b1-6)]Gal(b1-4)Glc
Method in brief: as §1

[8] = molecular target: Neu5Ac(a2-6)Gal(b1-4)Glc
Method in brief: as §1

[9] = molecular target: Neu5Ac(a2-6)Gal(b1-4)GlcNAc
Method in brief: as §1

[10] = molecular target: Neu5Ac(a2-6)Gal(b1-4)GlcNAc(b1-2)Man
Method in brief: as §1

[11] = molecular target: Neu5Ac(a2-6)Gal(b1-4)GlcNAc(b1-2)Man(a1-3)Man(b1-4)GlcNAc(b1-4)GlcNAc
Method in brief: as §1

[12] = molecular target: Neu5Ac(a2-6)Gal(b1-4)GlcNAc(b1-2)Man(a1-3)[Gal(b1-4)GlcNAc(b1-2)Man(a1-6)]Man(b1-4)GlcNAc(b1-4)GlcNAc
Method in brief: as §1

[13] = molecular target: Neu5Ac(a2-6)Gal(b1-4)GlcNAc(b1-2)Man(a1-3)[GlcNAc(b1-2)Man(a1-6)]Man(b1-4)GlcNAc(b1-4)GlcNAc
Method in brief: as §1

[14] = molecular target: Neu5Ac(a2-6)Gal(b1-4)GlcNAc(b1-2)Man(a1-3)[GlcNAc(b1-4)][Neu5Ac(a2-6)Gal(b1-4)GlcNAc(b1-2)Man(a1-6)]Man(b1-4)GlcNAc(b1-4)GlcNAc
Method in brief: as §1

[15] = molecular target: Neu5Ac(a2-6)Gal(b1-4)GlcNAc(b1-2)Man(a1-3)[Man(a1-6)]Man(b1-4)GlcNAc(b1-4)GlcNAc
Method in brief: as §1

[16] = molecular target: Neu5Ac(a2-6)Gal(b1-4)GlcNAc(b1-2)Man(a1-3)[Neu5Ac(a2-3)Gal(b1-4)GlcNAc(b1-2)Man(a1-6)]Man(b1-4)GlcNAc(b1-4)GlcNAc
Method in brief: as §1

[17] = molecular target: Neu5Ac(a2-6)Gal(b1-4)GlcNAc(b1-2)Man(a1-3)[Neu5Ac(a2-6)Gal(b1-4)GlcNAc(b1-2)Man(a1-6)]Man(b1-4)GlcNAc(b1-4)GlcNAc
Method in brief: as §1

[18] = molecular target: Neu5Ac(a2-6)Gal(b1-4)GlcNAc(b1-2)Man(a1-3)[Neu5Ac(a2-6)Gal(b1-4)GlcNAc(b1-2)Man(a1-6)]Man(b1-4)GlcNAc(b1-4)[Fuc(a1-6)]GlcNAc
Method in brief: as §1

[19] = molecular target: Neu5Ac(a2-6)Gal(b1-4)GlcNAc(b1-2)Man(a1-6)Man(b1-4)GlcNAc(b1-4)GlcNAc
Method in brief: as §1

[20] = molecular target: Neu5Ac(a2-6)Gal(b1-4)GlcNAc(b1-2)Man(a1-6)[Gal(b1-4)GlcNAc(b1-2)Man(a1-3)]Man(b1-4)GlcNAc(b1-4)GlcNAc
Method in brief: as §1

[21] = molecular target: Neu5Ac(a2-6)Gal(b1-4)GlcNAc(b1-2)Man(a1-6)[GlcNAc(b1-2)Man(a1-3)]Man(b1-4)GlcNAc(b1-4)GlcNAc
Method in brief: as §1

[22] = molecular target: Neu5Ac(a2-6)Gal(b1-4)GlcNAc(b1-2)Man(a1-6)[Man(a1-3)]Man(b1-4)GlcNAc(b1-4)GlcNAc
Method in brief: as §1

[23] = molecular target: Neu5Ac(a2-6)Gal(b1-4)GlcNAc(b1-2)[Neu5Ac(a2-6)Gal(b1-4)GlcNAc(b1-4)]Man(a1-3)[GlcNAc(b1-4)][Neu5Ac(a2-6)Gal(b1-4)GlcNAc(b1-2)[Neu5Ac(a2-6)Gal(b1-4)GlcNAc(b1-6)]Man(a1-6)]Man(b1-4)GlcNAc(b1-4)GlcNAc
Method in brief: as §1

[24] = molecular target: Neu5Ac(a2-6)Gal(b1-4)GlcNAc(b1-2)[Neu5Ac(a2-6)Gal(b1-4)GlcNAc(b1-4)]Man(a1-3)[GlcNAc(b1-4)][Neu5Ac(a2-6)Gal(b1-4)GlcNAc(b1-4)Man(a1-6)]Man(b1-4)GlcNAc(b1-4)GlcNAc
Method in brief: as §1

[25] = molecular target: Neu5Ac(a2-6)Gal(b1-4)GlcNAc(b1-2)[Neu5Ac(a2-6)Gal(b1-4)GlcNAc(b1-6)]Man(a1-6)[Neu5Ac(a2-6)Gal(b1-4)GlcNAc(b1-2)Man(a1-3)][GlcNAc(b1-4)]Man(b1-4)GlcNAc(b1-4)GlcNAc
Method in brief: as §1

[26] = molecular target: Neu5Ac(a2-6)Gal(b1-4)GlcNAc(b1-3)Gal(b1-3)GlcNAc
Method in brief: as §1

[27] = molecular target: Neu5Ac(a2-6)Gal(b1-4)GlcNAc(b1-3)Gal(b1-4)GlcNAc
Method in brief: as §1

[28] = molecular target: Neu5Ac(a2-6)Gal(b1-4)GlcNAc(b1-3)Gal(b1-4)GlcNAc(b1-2)Man(a1-3)[Neu5Ac(a2-6)Gal(b1-4)GlcNAc(b1-3)Gal(b1-4)GlcNAc(b1-2)Man(a1-6)]GalNAc
Method in brief: as §1

[29] = molecular target: Neu5Ac(a2-6)Gal(b1-4)GlcNAc(b1-3)Gal(b1-4)GlcNAc(b1-3)Gal(b1-4)GlcNAc
Method in brief: as §1

[30] = molecular target: Neu5Ac(a2-6)Gal(b1-4)GlcNAc(b1-3)Gal(b1-4)GlcNAc(b1-3)Gal(b1-4)GlcNAc(b1-2)Man(a1-3)[Neu5Ac(a2-6)Gal(b1-4)GlcNAc(b1-3)Gal(b1-4)GlcNAc(b1-3)Gal(b1-4)GlcNAc(b1-2)Man(a1-6)]GalNAc
Method in brief: as §1

[31] = molecular target: Neu5Ac(a2-6)Gal(b1-4)GlcNAc(b1-3)Gal(b1-4)GlcNAc(b1-3)GalNAc
Method in brief: as §1

[32] = molecular target: Neu5Ac(a2-6)Gal(b1-4)GlcNAc(b1-3)Gal(b1-4)GlcNAc(b1-3)[Neu5Ac(a2-6)Gal(b1-4)GlcNAc(b1-3)Gal(b1-4)GlcNAc(b1-6)]GalNAc
Method in brief: as §1

[33] = molecular target: Neu5Ac(a2-6)Gal(b1-4)GlcNAc(b1-3)Gal(b1-4)GlcNAc(b1-6)[Gal(b1-3)]GalNAc
Method in brief: as §1

[34] = molecular target: Neu5Ac(a2-6)Gal(b1-4)GlcNAc(b1-3)Gal(b1-4)[Fuc(a1-3)]GlcNAc(b1-3)Gal(b1-4)[Fuc(a1-3)]GlcNAc
Method in brief: as §1

[35] = molecular target: Neu5Ac(a2-6)Gal(b1-4)GlcNAc(b1-3)GalNAc
Method in brief: as §1

[36] = molecular target: Neu5Ac(a2-6)Gal(b1-4)GlcNAc(b1-3)[Neu5Ac(a2-6)Gal(b1-4)GlcNAc(b1-6)]GalNAc
Method in brief: as §1

[37] = molecular target: Neu5Ac(a2-6)Gal(b1-4)GlcNAc(b1-6)GalNAc
Method in brief: as §1

B1: Epf (Streptococcus pyogenes) (protein)
chain: GDHGPEFNGVMVVKAAEAEELPDDLMNFKGTWEVSADGSSGRFFSKGATDSYVFHLIPAKDVKKPGWREHNEVKDSYIKIDKQSIAARYKTSTTAPYSVAFKVNTKSLIKDHDYKITFEQGQIASGITVDYRIGSAFNKTTDDSFKISDESKYASNVKIEGEEQGFKQREQGDKTISFRTLKEGPMSLVLLSKVEKKPQGDLDVEFKNLKIIDVTNPSQLDKGVAYVGNKNVQLTLKSDDGRTNFEGDEISLFNSRGELLQTVTVTKDQQNPISITLSEDQAKSLKNKEKLKVSIKQKQSKKTSKDFFFEVGIDPKVEAKQKEKLLELDKVKKQIEDSINGDAWLPEKPVDLQGDHGLSAWSHPQFEK
glycan array binding signal (z-score) [1]: -0.331
glycan array binding signal (z-score) [2]: 0.703
glycan array binding signal (z-score) [3]: -0.493
glycan array binding signal (z-score) [4]: -0.655
glycan array binding signal (z-score) [5]: 0.04
glycan array binding signal (z-score) [6]: 2.12
glycan array binding signal (z-score) [7]: 0.869
glycan array binding signal (z-score) [8]: -1.71
glycan array binding signal (z-score) [9]: 0.195
glycan array binding signal (z-score) [10]: -0.065
glycan array binding signal (z-score) [11]: -0.6
glycan array binding signal (z-score) [12]: 0.283
glycan array binding signal (z-score) [13]: -0.547
glycan array binding signal (z-score) [14]: 1.03
glycan array binding signal (z-score) [15]: 0.21
glycan array binding signal (z-score) [16]: -1.54
glycan array binding signal (z-score) [17]: -0.399
glycan array binding signal (z-score) [18]: 0.834
glycan array binding signal (z-score) [19]: -1.46
glycan array binding signal (z-score) [20]: 0.814
glycan array binding signal (z-score) [21]: 2.14
glycan array binding signal (z-score) [22]: -1.63
glycan array binding signal (z-score) [23]: -0.662
glycan array binding signal (z-score) [24]: 0.157
glycan array binding signal (z-score) [25]: 0.109
glycan array binding signal (z-score) [26]: 0.278
glycan array binding signal (z-score) [27]: -0.462
glycan array binding signal (z-score) [28]: 1.41
glycan array binding signal (z-score) [29]: 0.124
glycan array binding signal (z-score) [30]: 0.545
glycan array binding signal (z-score) [31]: 0.574
glycan array binding signal (z-score) [32]: -0.232
glycan array binding signal (z-score) [33]: -1.02
glycan array binding signal (z-score) [34]: 0.012
glycan array binding signal (z-score) [35]: 0.219
glycan array binding signal (z-score) [36]: 0.285
glycan array binding signal (z-score) [37]: -1.11
